The whole screen tested about 330,000 compounds, of which about 7,700 (2.3%) were called active. This list was built around the results that the source calls inconclusive (neither active nor inactive); the mix of calls is not that of the screen. Calls follow the shape of the dose curve; as a rule, active = well fitted inhibition curve with a large enough effect; inconclusive = small, poorly fitted or top-dose-only effect, or effect the other way; inactive = flat fitted curve, though single readings scatter. Potencies beside an inconclusive call are fits to weak or partial responses and may not hold up.
Assay: qHTS screen for small molecules that inhibit ELG1-dependent DNA repair in human embryonic kidney (HEK293T) cells expressing luciferase-tagged ELG1; also: nearly all actives have a fitted effect of over 55% in size
Conditions: HEK293T ELG1-luciferase reporter, luminescence, 16 h, DNA damage induced by 5-fluorouridine; series mostly up to 46.1 µM
Method in brief: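 Cells (2,000 per well) received 5-fluorouridine plus test compound or DMSO and were incubated 16 hr at 37 °C, 5% CO2. Luciferase activity was read by luminescence 30 min after ONE-Glo addition; signal suppression marked inhibition of damage-induced ELG1 function.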
Potency is read from the fitted curve at half-maximal effect.

Row | SMILES | Potency
1 | C=CCn1c(N)c(C(=O)NCC2CCCO2)c2nc3ccccc3nc21 (stereo unspecified) | active: 10.3 µM
2 | CC1CCN(c2c(NCC3CCC(C(=O)NCCC4=CCCCC4)CC3)c(=O)c2=O)CC1 (stereo unspecified) | inconclusive: 18.3 µM [inhibitor, partial curve, poor fit]
3 | CCN(c1ccccc1)S(=O)(=O)c1ccc(C(=O)N2CCN(c3ccccc3)CC2)cc1 | inconclusive: 29.1 µM [inhibitor, single point]
4 | O=C(NC(=S)Nc1ccccc1N1CCCCC1)c1ccco1 | inconclusive: 29.1 µM [inhibitor, single point]
5 | CN(C)c1ccc(/C=C2\CCCc3c2nc2ccccc2c3C(=O)O)cc1 | inconclusive: 8.2 µM [activator, partial curve]
6 | COc1ccc(CCNC(=O)Cn2nnc(-c3cccs3)n2)cc1OC | inactive
7 | COc1cc(C(=O)N(C)CCOc2ccccc2)ccc1OCC(=O)Nc1cccc(C(F)(F)F)c1 | inconclusive: 22.4 µM [inhibitor, single point]
8 | O=C(Nc1ccc(Cl)cc1)N1CCCC1 | inconclusive: 16.4 µM [activator, single point]
9 | CC1(c2nnc(Cc3ccccc3)o2)CC(c2ccc([N+](=O)[O-])cc2)=NO1 (stereo unspecified) | inactive
10 | NC(=O)COn1c(SCC(N)=O)nc2ccccc2c1=O | inconclusive: 20.6 µM [activator, partial curve, poor fit]
11 | NC(=O)CSC1=Nc2ccccc2C2=NC(CCC(=O)NCc3ccc(F)cc3)C(=O)N12 (stereo unspecified) | inconclusive: 25.9 µM [activator, single point]
12 | CCN(CCCNC(=O)CNC(=O)c1nn(-c2ccc(OC)c(OC)c2)c(=O)c2ccccc12)c1ccccc1 | active: 10.3 µM
13 | O=C(Nc1nc2cc3c(cc2s1)OCCO3)c1cccc(S(=O)(=O)N2CCOCC2)c1 | inconclusive: 18.4 µM [inhibitor, single point]
14 | CC(C)(C)n1nc2c(c1NC(=O)c1ccco1)CS(=O)C2 (stereo unspecified) | inconclusive: 3.98 µM [inhibitor, single point]
15 | CCn1c2ccccc2c2cc(NC(=O)COC(=O)c3cc(S(N)(=O)=O)c(Cl)cc3Cl)ccc21 | inactive
16 | CCOC(=O)/C(C#N)=C\C1=C(N2CCOCC2)CC(C)(C)OC1 | inconclusive: 8.2 µM [activator, partial curve, poor fit]
17 | O=C(Nc1ccc2ccccc2n1)c1ccccc1Cl | inconclusive: 1.3 µM [activator, partial curve]
18 | Cc1cc(C)c2cc(CN(CCO)C(c3nnnn3Cc3ccc(F)cc3)C(C)C)c(=O)[nH]c2c1 (stereo unspecified) | active: 5.17 µM
19 | O=[N+]([O-])c1ccccc1-c1nc(-c2ccc(Br)o2)no1 | inconclusive: 9.2 µM [activator, partial curve]
20 | Cc1cc(NC(=O)c2cccc(S(=O)(=O)N3CCOCC3)c2)c2ccccc2n1 | inconclusive: 20.6 µM [inhibitor, partial curve]
21 | CC(C)Cn1c(N)c(C(=O)COC(=O)Cc2cccc(C(F)(F)F)c2)c(=O)n(C)c1=O | inconclusive: 29.1 µM [inhibitor, single point]
22 | Cc1ccc(N2CC(NS(=O)(=O)c3cccs3)CC2=O)cc1C (stereo unspecified) | inconclusive: 2.31 µM [activator, partial curve, poor fit]

Row | SMILES | Potency
23 | CCOC(=O)C1=C(C)N=C2c3ccccc3C(=O)C2C1c1ccc(C)cc1 (stereo unspecified) | inconclusive: 2.59 µM [inhibitor, full curve]
24 | CCNC(=O)NCc1c(C)c(C)n(Cc2ccccc2)c1-n1cccc1 | inconclusive: 29.1 µM [inhibitor, single point]
25 | CCCCCOc1ccc(C(O)C(CN2CCOCC2)c2ccccc2)cc1 (stereo unspecified) | inactive
26 | COc1ccc(NC(=O)C2CCCN(S(=O)(=O)c3cccc4cccnc34)C2)cc1 (stereo unspecified) | inconclusive: 23.1 µM [inhibitor, single point]
27 | CC1(C)CC(=O)c2cnc(NCC3CCCO3)nc2C1 (stereo unspecified) | inconclusive: 18.4 µM [activator, single point]
28 | CC(=O)N1CCC(N(CCCOC(C)C)S(=O)(=O)c2ccc([N+](=O)[O-])cc2)CC1 | inactive
29 | COCCOC(=O)c1[nH]c2c(c1C)C(=O)CC(c1ccc(N(C)C)cc1)C2 (stereo unspecified) | inconclusive: 29.1 µM [inhibitor, single point]
30 | O=C(CN1CCN(c2nc(-c3ccc(F)cc3)cs2)CC1)NCc1ccc2c(c1)OCO2 | inconclusive: 18.4 µM [inhibitor, partial curve]
31 | CCOC(=O)c1ccc(NC2c3ccccc3C(=O)N2c2cccnc2)cc1 (stereo unspecified) | inactive
32 | COc1ccc(N2C(=O)CCC(C(=O)N3CCCCCC3)C2c2ccc(OC)c(OC)c2)cc1 (stereo unspecified) | inactive
33 | CCOC(=O)c1cccnc1SCc1cc(=O)n2ccccc2n1 | inconclusive: 14.6 µM [activator, single point]
34 | COC(=O)[C@H](Cc1ccccc1)NC(=O)[C@@]1(C)C[C@@H]1[C@@H](NC(=O)OCc1ccccc1)c1ccccc1 | inactive
35 | CC(C)N1C(=O)CC(Nc2ccc(N3CCOCC3)cc2)C1=O (stereo unspecified) | inconclusive: 18.4 µM [activator, single point]
36 | Cc1cccc(C(=O)NCCc2csc(C)n2)c1 | inconclusive: 23.1 µM [activator, single point]
37 | O=C(NCc1ccccc1F)c1ccc2c(c1)OCO2 | inconclusive: 23.1 µM [activator, single point]
38 | COc1ccccc1C(=O)Nc1ccc(Br)cc1C | inconclusive: 20.6 µM [activator, partial curve]
39 | COc1cc(C)ccc1OCc1cc(C(=O)N2CCN(C3CCCCC3)CC2)no1 | inconclusive: 14.6 µM [activator, partial curve]
40 | COc1cccc(OCc2cc(C(=O)N3CCN(C(=O)c4ccco4)CC3)no2)c1 | inconclusive: 14.6 µM [activator, partial curve]
41 | Cc1ccnc(OC(C(=O)O)C(OCCc2ccccc2)(c2ccccc2)c2ccccc2)n1 (stereo unspecified) | inactive
42 | COc1cccc2cc(C(=O)Nc3ccccc3C)/c(=N/O)oc12 | inconclusive: 18.3 µM [activator, partial curve]
43 | Cc1ccc2c(C)c(C(=O)NCc3ccc(S(N)(=O)=O)cc3)oc2c1C | inconclusive: 29.1 µM [activator, single point]
44 | Cc1ccc(N2CCN(/N=C/c3cccs3)CC2)cc1 | inconclusive: 20.6 µM [activator, single point]

From entry 32 to 34, copied from above:
Row | SMILES | Potency
32 | COc1ccc(N2C(=O)CCC(C(=O)N3CCCCCC3)C2c2ccc(OC)c(OC)c2)cc1 (stereo unspecified) | inactive
33 | CCOC(=O)c1cccnc1SCc1cc(=O)n2ccccc2n1 | inconclusive: 14.6 µM [activator, single point]
34 | COC(=O)[C@H](Cc1ccccc1)NC(=O)[C@@]1(C)C[C@@H]1[C@@H](NC(=O)OCc1ccccc1)c1ccccc1 | inactive

Remaining list, next part:

Row | SMILES | Potency
45 | CC(C)C[C@H](NC(=O)c1nc[nH]c1C(=O)NCc1ccccc1)C(=O)OC(C)(C)C | inactive
46 | Cn1c(SCC(=O)N(Cc2ccccc2)C(C)(C)C)nc2ccccc21 | inactive
47 | COc1ccc(-c2noc3c2-c2nc(-c4ccc(Cl)cc4)sc2CC3)cc1 | inactive
48 | Cc1c(NS(=O)(=O)c2cccs2)cccc1-c1nc2cccnc2s1 | inconclusive: 29.1 µM [inhibitor, single point]
49 | COc1cc(C(=O)N/N=C(\c2ccccc2)c2ccccn2)cc(OC)c1OC | inconclusive: 6.51 µM [inhibitor, single point]
50 | COc1ccc2nc(N=Nc3ccc(O)c4ccccc34)sc2c1 | inconclusive: 4.61 µM [inhibitor, partial curve, poor fit]
51 | Cc1ccc(S(=O)(=O)c2nc(-c3ccccc3)oc2N2CCCC2)cc1 | inconclusive: 7.3 µM [activator, partial curve, poor fit]
52 | COc1ccc(N(CC(=O)Nc2ccccc2C(N)=O)S(=O)(=O)c2ccc(C)c([N+](=O)[O-])c2)cc1 | inconclusive: 29.1 µM [inhibitor, single point]
53 | COc1ccc(NC(=O)c2onc(C)c2Cl)cc1OC | inconclusive: 20.6 µM [activator, single point]
54 | CCOC(=O)COc1ccccc1/C=C\[N+](=O)[O-] | inconclusive: 23.1 µM [inhibitor, single point]
55 | Cc1cccc(-n2cc(-c3ccc([N+](=O)[O-])cc3)[nH]c2=S)c1 | inactive
56 | N#Cc1nc(NCC(F)F)nc(Nc2cc(F)cc(F)c2)n1 | inconclusive: 18.3 µM [inhibitor, partial curve, poor fit]
57 | COc1cc(C2=NOC(C(=O)NCc3cccnc3)C2)cc(OC)c1OC (stereo unspecified) | inconclusive: 32.6 µM [inhibitor, partial curve, poor fit]
58 | COc1ccc(CNc2ncnc3ccccc23)cc1 | active: 2.59 µM
59 | COc1ccc(C(c2nnnn2Cc2cccs2)N2CCN(c3ccccc3F)CC2)cc1OC (stereo unspecified) | inconclusive: 0.116 µM [inhibitor, single point]
60 | CCc1ccc(NC(=O)COC(=O)/C=C/c2ccco2)cc1 | inconclusive: 20.6 µM [activator, single point]
61 | CCOc1ccc(NC(=O)CN(c2ccc(OC)cc2)S(=O)(=O)c2cccs2)cc1 | inconclusive: 29.1 µM [activator, single point]
62 | O=C(CCC(=O)N1CCCCCC1)Nc1ccc([N+](=O)[O-])cc1 | inactive
63 | COc1cc(/C=C2/SC(=S)N(Cc3ccccc3)C2=O)ccc1O | inconclusive: 29.1 µM [activator, single point]
64 | CC(=O)N1c2c(cc(Br)cc2S(=O)(=O)NCc2ccc3c(c2)OCO3)CC1C (stereo unspecified) | inconclusive: 5.17 µM [inhibitor, single point]
65 | O=C(Nc1ccc(F)cc1)c1ccc2nsnc2c1 | inconclusive: 16.4 µM [activator, single point]
66 | Oc1ccc(/C=N/Nc2cccc3cccnc23)c(O)c1 | inconclusive: 5.17 µM [activator, partial curve]
